Laboratory results: PubChem BioAssay AID652243 (Drosophila RNAi Screening Center, 2013)

Aim: 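Fly regulators of androgen-dependent reporter output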 (primary screen)
Cells: Drosophila S2R+ cells
Reagents: long dsRNA against Drosophila genes
Time to read-out: 72 h (48 h, then 24 h hormone)
Treatment: synthetic androgen R1881 at 10 nM for 24 h
Read-out: 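Firefly light from an androgen-responsive reporter and Renilla control light per well, raw and unnormalised, for each of two replicates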
Reading the numbers: firefly reporter light: higher = more light from androgen-responsive reporter; Renilla control light: higher = more constitutive control signal (cell number, transfection)
Hit rule: 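Hit when the log firefly-to-Renilla ratio dropped or increased by a fixed fold versus the mean of GFP or LacZ controls across duplicate plates; lowering cut given as 1.5 and as 3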
Calls: active = hit: reporter lowered or raised; inactive = no hit
In all, the deposit lists about 24,000 reagents; this is an unselected part of those that have a named target and a result. Of all reagents, 246 (1%) were called active. 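Plates not normalised; calls are printed but the firefly/Renilla ratio behind them is not deposited; fold cut for lowering reported inconsistently.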 Raw values are not corrected between plates. A plus sign joins genes that one reagent is predicted to hit. Not given: the amount of reagent.

Knock-down of CG18745 [DRSC15382] gave: firefly reporter light, replicate 1 = 1.82e5; firefly reporter light, replicate 2 = 1.64e5; Renilla control light, replicate 1 = 3.57e6; Renilla control light, replicate 2 = 2.62e6; inactive.
With knock-down of CG18745 [DRSC30088] the results were firefly reporter light, replicate 1 = 8.44e5; firefly reporter light, replicate 2 = 7.35e5; Renilla control light, replicate 1 = 9.23e5; Renilla control light, replicate 2 = 9.80e5; inactive.
For Prim2 (DNA primase subunit 2) [DRSC11610], the values are firefly reporter light, replicate 1 = 9271; firefly reporter light, replicate 2 = 5459; Renilla control light, replicate 1 = 1.33e5; Renilla control light, replicate 2 = 96836; inactive.
For Gmer (GDP-4-keto-6-deoxy-D-mannose 3,5-epimerase/4-reductase) [DRSC04376] the deposit lists firefly reporter light, replicate 1 = 5.85e5; firefly reporter light, replicate 2 = 7.83e5; Renilla control light, replicate 1 = 9.99e5; Renilla control light, replicate 2 = 1.13e6; inactive.
Knock-down of Gmer (GDP-4-keto-6-deoxy-D-mannose 3,5-epimerase/4-reductase) [DRSC28925] resulted in: firefly reporter light, replicate 1 = 4.68e5; firefly reporter light, replicate 2 = 5.57e5; Renilla control light, replicate 1 = 8.79e5; Renilla control light, replicate 2 = 9.74e5; inactive.
Knock-down of EDTP (Egg-derived tyrosine phosphatase) [DRSC07409] came out at: firefly reporter light, replicate 1 = 81937; firefly reporter light, replicate 2 = 71886; Renilla control light, replicate 1 = 1.50e6; Renilla control light, replicate 2 = 1.50e6; inactive.
Depletion of EDTP (Egg-derived tyrosine phosphatase) [DRSC36785] gave: inactive.
Silencing of EDTP (Egg-derived tyrosine phosphatase) [DRSC36786] came out at: inactive.

2 successive entries already listed:
Prim2 (DNA primase subunit 2) [DRSC11610] | firefly reporter light, replicate 1 = 9271; firefly reporter light, replicate 2 = 5459; Renilla control light, replicate 1 = 1.33e5; Renilla control light, replicate 2 = 96836; Call = inactive
Gmer (GDP-4-keto-6-deoxy-D-mannose 3,5-epimerase/4-reductase) [DRSC04376] | firefly reporter light, replicate 1 = 5.85e5; firefly reporter light, replicate 2 = 7.83e5; Renilla control light, replicate 1 = 9.99e5; Renilla control light, replicate 2 = 1.13e6; Call = inactive

Additional results follow:
AstA-R1 (Allatostatin A receptor 1) [DRSC17278] scored firefly reporter light, replicate 1 = 6.45e5; firefly reporter light, replicate 2 = 7.60e5; Renilla control light, replicate 1 = 1.37e6; Renilla control light, replicate 2 = 9.56e5; inactive.
Knock-down of AstA-R1 (Allatostatin A receptor 1) [DRSC17727] came out at: firefly reporter light, replicate 1 = 7.57e5; firefly reporter light, replicate 2 = 7.70e5; Renilla control light, replicate 1 = 6.03e6; Renilla control light, replicate 2 = 5.31e6; inactive.
fzr (fizzy-related) [DRSC18781] gave firefly reporter light, replicate 1 = 4.49e5; firefly reporter light, replicate 2 = 4.63e5; Renilla control light, replicate 1 = 2.01e6; Renilla control light, replicate 2 = 2.27e6; inactive.
Knock-down of fzr (fizzy-related) [DRSC28236] gave: firefly reporter light, replicate 1 = 3.91e5; firefly reporter light, replicate 2 = 7.57e5; Renilla control light, replicate 1 = 8.56e5; Renilla control light, replicate 2 = 1.27e6; inactive.
Depletion of CG31917 + Tfb5 [DRSC02362] resulted in: firefly reporter light, replicate 1 = 2.32e5; firefly reporter light, replicate 2 = 2.91e5; Renilla control light, replicate 1 = 1.55e6; Renilla control light, replicate 2 = 1.27e6; inactive.
CG31917 + Tfb5 [DRSC02363] scored firefly reporter light, replicate 1 = 90018; firefly reporter light, replicate 2 = 61101; Renilla control light, replicate 1 = 8.36e5; Renilla control light, replicate 2 = 5.60e5; inactive.
